PubChem BioAssay AID743458, Peter MacCallum Cancer Centre | 2014

- Aim: 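Identify genes whose loss lifts vorinostat resistance in colon cancer cells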 (follow-up of hits)
- Cell system: human HCT116-VR colon cancer cells made resistant to vorinostat
- Reagent: single siRNA or pool against human genes, 25 nM per single siRNA
- Timing: about 72 h after transfection, including 24 h of drug
- Conditions: vorinostat, 2.5 µM final, for 24 h
- Measurement: 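Live-cell fluorescent viability and luminescent caspase 3/7 activity after vorinostat treatment, background subtracted, mean of duplicate plates, as fold change over mock-transfected wells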
- Reading the numbers: viability relative to mock: higher = more living cells than mock; caspase activity relative to mock: higher = more apoptosis than mock
- Active means: 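An siRNA counts as active if classed as reduced viability or as caspase activation, otherwise inactive; a hit class needed wells that remained healthy in the absence of drug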
The deposit covers about 1,800 reagents; below is a part drawn at random. Over the whole deposit, 732 (41%) were called active. 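Calls are per siRNA reagent; a gene was deemed confirmed only if most of its four siRNAs scored.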 Unmarked entries are inactive. Reagents against one gene are numbered here.

DNAI2 #1 scored viability relative to mock 0.82; caspase activity relative to mock 2.36; viability hit class no change; caspase hit class no change.
After knock-down of DNAI2 #2 the results were viability relative to mock 0.83; caspase activity relative to mock 1.56; viability hit class no change; caspase hit class no change.
After knock-down of DNAI2 #3, the record shows viability relative to mock 0.98; caspase activity relative to mock 1.29; viability hit class no change; caspase hit class no change.
Knock-down of DNAI2 #4 came out at: viability relative to mock 0.23 (active); caspase activity relative to mock 3.29; viability hit class reduced viability; caspase hit class caspase activation.
Against POLR2J #1 the deposit lists viability relative to mock 0.44 (active); caspase activity relative to mock 4.05; viability hit class reduced viability; caspase hit class caspase activation.
Silencing of POLR2J #2 came out at: viability relative to mock 0.76; caspase activity relative to mock 1.92; viability hit class no change; caspase hit class no change.
Knock-down of POLR2J #3 gave: viability relative to mock 0.5 (active); caspase activity relative to mock 3.64; viability hit class reduced viability; caspase hit class caspase activation.
With knock-down of POLR2J #4 the results were viability relative to mock 0.82; caspase activity relative to mock 1.95; viability hit class no change; caspase hit class no change.
Depletion of SLC10A3 #1 came out at: viability relative to mock 0.86; caspase activity relative to mock 1.2; viability hit class no change; caspase hit class no change.
Silencing of SLC10A3 #2 gave: viability relative to mock 0.39 (active); caspase activity relative to mock 7.72; viability hit class reduced viability; caspase hit class caspase activation.
SLC10A3 #3 scored viability relative to mock 0.84; caspase activity relative to mock 1.25; viability hit class no change; caspase hit class no change.
Knock-down of SLC10A3 #4 gave: viability relative to mock 0.69; caspase activity relative to mock 1; viability hit class no change; caspase hit class no change.
NUP42 #1 showed viability relative to mock 0.74 (active); caspase activity relative to mock 2.64; viability hit class no change; caspase hit class caspase activation.
With knock-down of NUP42 #2 the results were viability relative to mock 0.81; caspase activity relative to mock 1.7; viability hit class no change; caspase hit class no change.
For NUP42 #3 the deposit lists viability relative to mock 0.74; caspase activity relative to mock 1.94; viability hit class no change; caspase hit class no change.
Knock-down of NUP42 #4 resulted in: viability relative to mock 1; caspase activity relative to mock 1.25; viability hit class no change; caspase hit class no change.

3 entries from above, set out differently:
{"gene knocked down": "SLC10A3", "reagent no.": 4, "viability relative to mock": 0.69, "caspase activity relative to mock": 1, "viability hit class": "no change", "caspase hit class": "no change"}
{"gene knocked down": "NUP42", "reagent no.": 1, "viability relative to mock": "0.74 (active)", "caspase activity relative to mock": 2.64, "viability hit class": "no change", "caspase hit class": "caspase activation"}
{"gene knocked down": "NUP42", "reagent no.": 2, "viability relative to mock": 0.81, "caspase activity relative to mock": 1.7, "viability hit class": "no change", "caspase hit class": "no change"}
